From the supplement of paper PMC10849652
This is one part of the list. Residues, ends and D or L forms follow the SMILES beside them. *: point of attachment. Cbz = O=C(OCc1ccccc1)*

Sequences of proteins named here, by UniProt entry; tags and fusion partners are left off. A change or cut given only in a name is not applied to a line headed by its entry.
UniProt Q9BUL5: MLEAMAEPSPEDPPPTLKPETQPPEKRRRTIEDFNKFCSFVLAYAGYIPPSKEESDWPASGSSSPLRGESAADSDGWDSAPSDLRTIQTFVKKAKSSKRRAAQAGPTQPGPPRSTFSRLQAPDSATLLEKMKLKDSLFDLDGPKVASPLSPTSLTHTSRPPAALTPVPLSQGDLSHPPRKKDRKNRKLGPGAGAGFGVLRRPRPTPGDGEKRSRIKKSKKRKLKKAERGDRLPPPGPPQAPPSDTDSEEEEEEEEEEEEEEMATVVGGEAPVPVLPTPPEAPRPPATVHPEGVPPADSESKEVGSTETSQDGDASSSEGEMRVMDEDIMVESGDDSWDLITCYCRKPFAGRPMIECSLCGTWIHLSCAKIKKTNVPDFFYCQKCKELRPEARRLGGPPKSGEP
UniProt Q13492: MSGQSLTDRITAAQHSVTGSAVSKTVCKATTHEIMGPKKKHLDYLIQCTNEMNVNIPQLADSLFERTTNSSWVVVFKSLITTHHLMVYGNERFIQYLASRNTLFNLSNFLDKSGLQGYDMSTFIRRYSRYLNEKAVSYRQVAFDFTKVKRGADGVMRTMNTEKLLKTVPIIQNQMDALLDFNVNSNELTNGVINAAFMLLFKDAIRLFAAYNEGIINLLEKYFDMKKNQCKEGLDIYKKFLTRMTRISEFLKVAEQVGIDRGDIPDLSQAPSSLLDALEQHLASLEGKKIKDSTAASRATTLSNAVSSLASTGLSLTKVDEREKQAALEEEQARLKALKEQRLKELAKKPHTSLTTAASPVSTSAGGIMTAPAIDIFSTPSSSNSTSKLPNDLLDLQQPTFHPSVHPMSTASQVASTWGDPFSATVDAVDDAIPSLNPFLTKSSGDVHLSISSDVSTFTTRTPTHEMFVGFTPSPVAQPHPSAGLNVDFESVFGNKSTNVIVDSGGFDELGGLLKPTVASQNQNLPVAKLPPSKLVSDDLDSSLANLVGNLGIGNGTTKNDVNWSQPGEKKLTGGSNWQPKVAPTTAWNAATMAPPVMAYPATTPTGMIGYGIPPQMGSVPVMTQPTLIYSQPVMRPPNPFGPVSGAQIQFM
UniProt Q99471, whole entry, looked up: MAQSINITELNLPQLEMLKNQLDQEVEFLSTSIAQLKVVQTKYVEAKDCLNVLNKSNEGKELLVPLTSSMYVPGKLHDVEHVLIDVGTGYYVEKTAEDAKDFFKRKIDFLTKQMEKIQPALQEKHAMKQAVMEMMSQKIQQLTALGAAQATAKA
UniProt Q4KWH8: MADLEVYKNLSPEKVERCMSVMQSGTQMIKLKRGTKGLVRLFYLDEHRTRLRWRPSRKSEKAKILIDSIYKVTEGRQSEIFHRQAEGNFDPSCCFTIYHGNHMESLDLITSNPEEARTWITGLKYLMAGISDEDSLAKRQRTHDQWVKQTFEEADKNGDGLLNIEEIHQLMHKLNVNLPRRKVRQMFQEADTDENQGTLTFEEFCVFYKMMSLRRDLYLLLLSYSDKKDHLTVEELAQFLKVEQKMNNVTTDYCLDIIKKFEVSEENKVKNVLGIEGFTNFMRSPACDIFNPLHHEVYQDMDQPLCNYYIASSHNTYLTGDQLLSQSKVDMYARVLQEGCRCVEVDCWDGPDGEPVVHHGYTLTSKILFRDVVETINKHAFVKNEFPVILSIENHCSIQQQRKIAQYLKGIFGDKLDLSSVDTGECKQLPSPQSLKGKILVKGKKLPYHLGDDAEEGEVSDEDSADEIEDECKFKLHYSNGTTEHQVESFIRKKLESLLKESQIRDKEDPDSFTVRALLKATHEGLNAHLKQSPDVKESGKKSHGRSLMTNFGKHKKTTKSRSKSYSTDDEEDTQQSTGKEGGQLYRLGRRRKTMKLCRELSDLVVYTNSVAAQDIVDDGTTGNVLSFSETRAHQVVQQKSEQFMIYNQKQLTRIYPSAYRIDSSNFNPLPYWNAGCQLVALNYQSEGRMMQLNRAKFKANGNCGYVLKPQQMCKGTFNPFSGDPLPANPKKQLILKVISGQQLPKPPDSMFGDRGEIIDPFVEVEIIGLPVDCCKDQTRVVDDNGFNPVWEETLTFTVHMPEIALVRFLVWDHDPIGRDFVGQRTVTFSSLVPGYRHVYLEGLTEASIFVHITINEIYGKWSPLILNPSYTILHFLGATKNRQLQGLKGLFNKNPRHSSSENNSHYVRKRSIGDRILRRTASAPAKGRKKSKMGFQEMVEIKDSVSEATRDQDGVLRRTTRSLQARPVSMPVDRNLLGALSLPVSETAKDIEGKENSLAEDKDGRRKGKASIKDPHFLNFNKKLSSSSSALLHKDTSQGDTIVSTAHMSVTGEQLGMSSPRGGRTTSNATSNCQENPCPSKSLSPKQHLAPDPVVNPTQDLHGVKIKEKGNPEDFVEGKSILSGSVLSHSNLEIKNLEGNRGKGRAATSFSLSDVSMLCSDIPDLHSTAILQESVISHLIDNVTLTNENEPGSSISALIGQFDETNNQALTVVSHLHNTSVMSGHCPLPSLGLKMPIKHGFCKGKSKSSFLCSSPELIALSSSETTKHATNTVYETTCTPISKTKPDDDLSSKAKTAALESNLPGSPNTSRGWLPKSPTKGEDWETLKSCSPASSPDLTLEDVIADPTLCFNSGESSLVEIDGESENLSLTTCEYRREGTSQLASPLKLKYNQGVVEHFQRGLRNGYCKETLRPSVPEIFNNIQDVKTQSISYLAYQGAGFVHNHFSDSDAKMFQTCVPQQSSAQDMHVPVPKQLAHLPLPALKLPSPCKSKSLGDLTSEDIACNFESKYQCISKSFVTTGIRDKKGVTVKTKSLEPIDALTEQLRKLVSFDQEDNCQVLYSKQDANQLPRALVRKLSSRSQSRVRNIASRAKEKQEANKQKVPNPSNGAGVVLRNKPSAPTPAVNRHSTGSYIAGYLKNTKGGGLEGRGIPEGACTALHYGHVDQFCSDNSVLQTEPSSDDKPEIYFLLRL
UniProt Q8IWS0: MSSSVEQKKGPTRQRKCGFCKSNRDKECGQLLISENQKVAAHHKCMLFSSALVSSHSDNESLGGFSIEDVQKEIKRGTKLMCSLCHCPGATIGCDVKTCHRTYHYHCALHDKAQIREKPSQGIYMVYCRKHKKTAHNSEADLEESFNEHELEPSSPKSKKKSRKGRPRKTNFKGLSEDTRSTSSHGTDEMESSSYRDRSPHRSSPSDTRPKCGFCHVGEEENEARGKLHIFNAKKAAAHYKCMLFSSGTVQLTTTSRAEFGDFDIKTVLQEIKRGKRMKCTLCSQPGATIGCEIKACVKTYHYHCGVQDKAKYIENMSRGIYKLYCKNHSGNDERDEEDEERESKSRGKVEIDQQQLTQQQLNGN
UniProt O75167: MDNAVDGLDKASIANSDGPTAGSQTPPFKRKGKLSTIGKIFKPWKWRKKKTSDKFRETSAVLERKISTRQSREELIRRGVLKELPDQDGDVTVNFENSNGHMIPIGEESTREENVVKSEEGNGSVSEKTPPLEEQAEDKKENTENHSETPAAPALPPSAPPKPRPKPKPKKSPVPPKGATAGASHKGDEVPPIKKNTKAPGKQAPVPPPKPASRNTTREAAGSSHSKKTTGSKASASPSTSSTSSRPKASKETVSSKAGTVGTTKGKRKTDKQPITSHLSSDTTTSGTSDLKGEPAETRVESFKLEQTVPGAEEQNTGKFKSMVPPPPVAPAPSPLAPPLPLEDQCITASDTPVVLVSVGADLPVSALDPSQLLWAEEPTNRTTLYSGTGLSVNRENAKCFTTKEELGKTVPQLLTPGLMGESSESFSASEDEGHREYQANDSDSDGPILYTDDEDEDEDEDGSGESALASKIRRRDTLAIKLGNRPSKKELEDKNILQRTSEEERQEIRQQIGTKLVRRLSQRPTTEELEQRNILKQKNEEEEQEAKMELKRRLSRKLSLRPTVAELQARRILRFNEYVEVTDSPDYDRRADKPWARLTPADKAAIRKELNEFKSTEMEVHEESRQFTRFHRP
UniProt Q92643: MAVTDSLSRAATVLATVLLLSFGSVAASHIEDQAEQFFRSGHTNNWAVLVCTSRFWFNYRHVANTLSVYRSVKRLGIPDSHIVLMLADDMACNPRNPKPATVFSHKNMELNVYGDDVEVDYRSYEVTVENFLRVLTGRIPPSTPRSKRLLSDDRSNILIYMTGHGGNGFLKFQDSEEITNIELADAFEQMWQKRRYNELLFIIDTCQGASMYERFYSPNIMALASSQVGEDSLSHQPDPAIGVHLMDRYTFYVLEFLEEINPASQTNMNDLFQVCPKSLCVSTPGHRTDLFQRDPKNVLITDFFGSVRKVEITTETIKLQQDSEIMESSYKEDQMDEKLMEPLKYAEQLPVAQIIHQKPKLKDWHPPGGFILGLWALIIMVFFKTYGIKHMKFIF
UniProt P17858: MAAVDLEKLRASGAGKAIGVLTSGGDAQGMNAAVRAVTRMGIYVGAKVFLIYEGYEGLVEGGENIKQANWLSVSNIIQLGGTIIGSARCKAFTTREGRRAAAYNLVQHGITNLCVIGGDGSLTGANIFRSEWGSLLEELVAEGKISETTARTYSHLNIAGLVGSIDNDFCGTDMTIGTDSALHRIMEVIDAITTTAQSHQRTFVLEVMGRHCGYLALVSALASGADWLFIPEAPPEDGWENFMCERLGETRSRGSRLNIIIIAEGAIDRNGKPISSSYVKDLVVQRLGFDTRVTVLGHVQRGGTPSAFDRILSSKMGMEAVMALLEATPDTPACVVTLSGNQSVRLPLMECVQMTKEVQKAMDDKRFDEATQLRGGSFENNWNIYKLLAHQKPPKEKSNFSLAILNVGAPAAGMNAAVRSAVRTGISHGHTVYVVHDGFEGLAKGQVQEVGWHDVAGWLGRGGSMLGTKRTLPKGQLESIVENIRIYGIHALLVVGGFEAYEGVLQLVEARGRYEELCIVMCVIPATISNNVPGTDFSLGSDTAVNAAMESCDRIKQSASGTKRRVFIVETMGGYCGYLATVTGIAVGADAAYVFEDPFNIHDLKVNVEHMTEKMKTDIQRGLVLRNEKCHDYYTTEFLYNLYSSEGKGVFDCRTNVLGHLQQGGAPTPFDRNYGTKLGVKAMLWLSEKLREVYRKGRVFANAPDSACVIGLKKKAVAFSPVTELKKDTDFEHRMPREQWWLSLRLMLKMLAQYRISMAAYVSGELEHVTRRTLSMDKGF
UniProt O15212, whole entry, looked up: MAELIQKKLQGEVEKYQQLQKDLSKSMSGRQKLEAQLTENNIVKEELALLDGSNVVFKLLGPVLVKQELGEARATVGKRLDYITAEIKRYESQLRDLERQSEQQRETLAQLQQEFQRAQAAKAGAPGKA
UniProt Q96BK5: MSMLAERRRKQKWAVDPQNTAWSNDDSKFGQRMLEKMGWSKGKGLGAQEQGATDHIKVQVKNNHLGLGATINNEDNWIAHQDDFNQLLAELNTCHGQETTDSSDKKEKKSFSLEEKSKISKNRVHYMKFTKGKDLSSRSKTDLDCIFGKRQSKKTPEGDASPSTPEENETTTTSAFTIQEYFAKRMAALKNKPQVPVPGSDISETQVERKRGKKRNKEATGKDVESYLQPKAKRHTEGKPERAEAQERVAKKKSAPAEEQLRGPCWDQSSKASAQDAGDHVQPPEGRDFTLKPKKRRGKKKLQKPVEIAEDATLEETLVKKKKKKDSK
UniProt Q9H490: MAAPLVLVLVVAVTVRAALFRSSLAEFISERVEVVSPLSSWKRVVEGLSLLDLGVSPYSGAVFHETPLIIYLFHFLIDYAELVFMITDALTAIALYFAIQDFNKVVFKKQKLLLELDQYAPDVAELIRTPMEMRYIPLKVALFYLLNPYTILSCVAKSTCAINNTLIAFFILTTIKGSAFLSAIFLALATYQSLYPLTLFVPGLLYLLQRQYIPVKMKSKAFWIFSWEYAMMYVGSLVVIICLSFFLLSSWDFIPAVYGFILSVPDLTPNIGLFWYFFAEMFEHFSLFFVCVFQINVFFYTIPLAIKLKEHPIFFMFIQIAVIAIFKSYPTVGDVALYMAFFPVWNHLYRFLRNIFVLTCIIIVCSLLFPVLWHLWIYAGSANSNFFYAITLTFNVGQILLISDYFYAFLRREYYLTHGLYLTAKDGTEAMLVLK
UniProt Q00169: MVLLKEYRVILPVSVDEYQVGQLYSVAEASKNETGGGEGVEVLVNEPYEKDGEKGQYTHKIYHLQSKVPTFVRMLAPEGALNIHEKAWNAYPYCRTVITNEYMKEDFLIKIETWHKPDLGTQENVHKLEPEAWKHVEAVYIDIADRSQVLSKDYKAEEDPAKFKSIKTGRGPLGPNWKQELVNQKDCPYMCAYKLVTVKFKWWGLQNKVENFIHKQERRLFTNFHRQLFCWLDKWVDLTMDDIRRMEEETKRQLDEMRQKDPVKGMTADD
UniProt O15173: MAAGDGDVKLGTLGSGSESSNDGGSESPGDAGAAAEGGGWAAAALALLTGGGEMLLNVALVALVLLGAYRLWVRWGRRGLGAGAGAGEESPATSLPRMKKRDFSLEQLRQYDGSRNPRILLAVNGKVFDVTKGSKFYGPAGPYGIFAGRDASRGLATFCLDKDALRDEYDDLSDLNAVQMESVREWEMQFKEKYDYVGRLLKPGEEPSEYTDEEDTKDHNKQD

What was measured:
Assay in all cases: log2 fold change, soluble protein after heating vs DMSO (PISA); higher = thermal stabilisation; K562 cells, 10 uM, 30 min; active = over 0.2 and 3.5 SD of the protein, either way, in both replicates (recomputed)
IRAK-1-4 Inhibitor I = compound: C1COCCN1CCN2C3=CC=CC=C3N=C2NC(=O)C4=CC(=CC=C4)[N+](=O)[O-] [IRAK-1-4 Inhibitor I]
Outline: (§1)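 Aliquots of K562 cells (2×10^6 cells/mL) treated with 10 μM compound for 30 min were heated for 3 min over 48°C-58°C. After pooling and extraction in PBS with 0.5% NP-40 at 4°C, soluble protein from a 21,000xg, 90 min spin was quantified by TMTpro 16plex LC-MS/MS with channel sums equalised. Thermal stability is expressed against control samples, from duplicates, as a log2 fold change.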

ibrutinib = compound: C=CC(=O)N1CCC[C@@H](n2nc(-c3ccc(Oc4ccccc4)cc3)c3c(N)ncnc32)C1 [ibrutinib]
Outline: as §1

[1] = compound: CC(=O)c1cnc2ccc(-c3cc(Cl)c(O)c(Cl)c3)nc2c1N[C@H]1CC[C@H](CN(C)C)CC1
Outline: as §1

ralimetinib = compound: CC(C)(C)Cn1c(N)nc2ccc(-c3[nH]c(C(C)(C)C)nc3-c3ccc(F)cc3)nc21 [ralimetinib]
Outline: as §1

[2] = compound: CC(C)(O)CC(=O)NCCn1ccc2ncnc(Nc3ccc(Oc4cccc(C(F)(F)F)c4)c(Cl)c3)c21
Outline: as §1

[3] = compound: CC(C)C1=C2N=C(C=C(N2N=C1)NCC3=CC=CC=C3)NCCCCCCN
Outline: as §1

[4] = compound: CC(C)C[C@@H](C=O)NC(=O)[C@H](CC(C)C)NC(=O)[C@H](CC(C)C)NC(=O)OCc1ccccc1
Outline: as §1

pinometostat = compound: CC(C)N(C[C@H]1O[C@@H](n2cnc3c(N)ncnc32)[C@H](O)[C@@H]1O)[C@H]1C[C@@H](CCc2nc3cc(C(C)(C)C)ccc3[nH]2)C1 [pinometostat]
Outline: as §1

[5] = compound: CC1=C(C(CC(=O)N1)C2=CC=C(C=C2)C(F)(F)F)C(=O)NC3=C(C=C4C(=C3)C=NN4)F
Outline: as §1

[6] = compound: CC1=C(C2=C(C=C1)C(=O)C3=CC=CC=C3N2CCCN)C
Outline: as §1

[7] = compound: CC1=C(C=C(C=C1)NC(=O)C2=CC(=CC=C2)C(C)(C)C#N)NC3=CC4=C(C=C3)N=CN(C4=O)C
Outline: as §1

[8] = compound: CC1=C(C=C(C=C1)NC(=O)C2=CC(=CC=C2)N(C)C)NC(=O)C3=CC=C(C=C3)O
Outline: as §1

[9] = compound: CC1=CC=C(C=C1)SC2=C3C=C(SC3=CN=C2)C(=O)N
Outline: as §1

[10] = compound: CC1=NC(=CC=C1)C2=C(N=C(N2)C(C)(C)C)C3=CC4=NC=CN=C4C=C3
Outline: as §1

Nexturastat A = compound: CCCCN(Cc1ccc(C(=O)NO)cc1)C(=O)Nc1ccccc1 [Nexturastat A]
Outline: as §1

vemurafenib = compound: CCCS(=O)(=O)Nc1ccc(F)c(C(=O)c2c[nH]c3ncc(-c4ccc(Cl)cc4)cc23)c1F [vemurafenib]
Outline: as §1

[11] = compound: CCCS(=O)(=O)Nc1ccc(F)c(C(=O)c2c[nH]c3ncc(Cl)cc23)c1F
Outline: as §1

[12] = compound: CCCc1cc(C)[nH]c(=O)c1CNC(=O)c1cc(-c2ccnc(N3CCN(C)CC3)c2)cc2c1cnn2C(C)C
Outline: as §1

givinostat = compound: CCN(CC)Cc1ccc2cc(COC(=O)Nc3ccc(C(=O)NO)cc3)ccc2c1 [givinostat]
Outline: as §1

barasertib = compound: CCN(CCCOc1ccc2c(Nc3cc(CC(=O)Nc4cccc(F)c4)[nH]n3)ncnc2c1)CCOP(=O)(O)O [barasertib]
Outline: as §1

Measured: log2 fold change

PHF23 (UniProt Q9BUL5)
inactive: IRAK-1-4 Inhibitor I 0.044 | ibrutinib -0.039 | [1] 0.011 | ralimetinib -0.098 | [2] -0.018 | [3] 0.025 | [4] 0.006 | pinometostat 0.018 | [5] 0.022 | [6] -0.005 | [7] -0.036 | [8] -0.013 | [9] -0.003 | [10] -0.029 | Nexturastat A -0.02 | vemurafenib -0.007 | [11] -0.024 | [12] -0.013 | givinostat 0.008 | barasertib -0.003

PICALM (UniProt Q13492)
inactive: IRAK-1-4 Inhibitor I 0.067 | ibrutinib 0.002 | [1] -0.039 | ralimetinib -0.008 | [2] 0 | [3] 0.016 | [4] -0.007 | pinometostat -0.003 | [5] -0.016 | [6] 0.044 | [7] -0.015 | [8] 0.012 | [9] -0.02 | [10] 0.035 | Nexturastat A -0.032 | vemurafenib 0.022 | [11] 0.032 | [12] -0.083 | givinostat -0.007 | barasertib 0.018

PFDN5 (UniProt Q99471)
inactive: IRAK-1-4 Inhibitor I -0.112 | ibrutinib 0.004 | [1] -0.015 | ralimetinib -0.077 | [2] -0.042 | [3] 0.075 | [4] -0.233 | pinometostat -0.196 | [5] 0.024 | [6] 0.159 | [7] 0.07 | [8] -0.206 | [9] 0.025 | [10] 0.092 | Nexturastat A -0.019 | vemurafenib 0.213 | [11] 0 | [12] 0.031 | givinostat 0.037 | barasertib -0.003

PLCH1 (UniProt Q4KWH8)
inactive: IRAK-1-4 Inhibitor I -0.081 | ibrutinib -0.186 | [1] -0.09 | ralimetinib -0.084 | [2] 0.016 | [3] -0.119 | [4] 0.017 | pinometostat -0.02 | [5] 0.01 | [6] 0.067 | [7] 0.013 | [8] 0.018 | [9] 0.007 | [10] -0.003 | Nexturastat A -0.084 | vemurafenib 0.001 | [11] -0.073 | [12] -0.003 | givinostat 0.043 | barasertib 0.008

PGLS (UniProt O95336)
inactive: IRAK-1-4 Inhibitor I 0.016 | ibrutinib -0.015 | [1] -0.135 | ralimetinib -0.103 | [2] -0.127 | [3] 0.019 | [4] -0.112 | pinometostat -0.014 | [5] 0.061 | [6] 0.242 | [7] 0.027 | [8] -0.099 | [9] 0.059 | [10] -0.024 | Nexturastat A -0.026 | vemurafenib 0.185 | [11] -0.018 | [12] -0.016 | givinostat -0.029 | barasertib 0.074

PHF6 (UniProt Q8IWS0)
inactive: IRAK-1-4 Inhibitor I -0.105 | ibrutinib 0.035 | [1] 0.06 | ralimetinib 0.235 | [2] 0.042 | [3] 0.129 | [4] 0.097 | pinometostat 0.262 | [5] 0.035 | [6] -0.267 | [7] 0.015 | [8] -0.037 | [9] -0.089 | [10] -0.092 | Nexturastat A 0.187 | vemurafenib -0.075 | [11] -0.015 | [12] 0.114 | givinostat 0.039 | barasertib -0.057

PHACTR2 isoform 4 (UniProt O75167)
inactive: IRAK-1-4 Inhibitor I 0.017 | ibrutinib 0.014 | [1] -0.008 | ralimetinib -0.042 | [2] 0.017 | [3] -0.15 | [4] -0.035 | pinometostat -0.068 | [5] 0.191 | [6] -0.019 | [7] -0.092 | [8] -0.001 | [9] 0.036 | [10] -0.031 | Nexturastat A -0.073 | vemurafenib 0.028 | [11] -0.085 | [12] -0.023 | givinostat 0.058 | barasertib 0.07

PIGK (UniProt Q92643)
inactive: IRAK-1-4 Inhibitor I -0.087 | ibrutinib 0.01 | [1] 0 | ralimetinib 0.021 | [2] -0.027 | [3] -0.061 | [4] 0.01 | pinometostat -0.011 | [5] -0.015 | [6] 0.002 | [7] -0.036 | [8] -0.014 | [9] -0.02 | [10] 0.009 | Nexturastat A 0.066 | vemurafenib -0.062 | [11] 0.006 | [12] 0 | givinostat 0.009 | barasertib -0.038

PFKL isoform 2 (UniProt P17858)
inactive: IRAK-1-4 Inhibitor I 0.015 | ibrutinib 0.018 | [1] 0.003 | ralimetinib -0.053 | [2] 0.02 | [3] 0.108 | [4] -0.058 | pinometostat -0.022 | [5] 0.015 | [6] 0.013 | [7] -0.049 | [8] -0.003 | [9] 0.027 | [10] -0.002 | Nexturastat A -0.049 | vemurafenib -0.01 | [11] -0.016 | [12] -0.022 | givinostat 0 | barasertib -0.009

PFDN6 (UniProt O15212)
inactive: IRAK-1-4 Inhibitor I 0.004 | ibrutinib 0.026 | [1] 0.016 | ralimetinib -0.099 | [2] -0.047 | [3] 0.065 | [4] 0.028 | pinometostat -0.112 | [5] 0.001 | [6] 0.044 | [7] 0.036 | [8] 0.012 | [9] 0.043 | [10] 0.038 | Nexturastat A -0.051 | vemurafenib 0.089 | [11] -0.001 | [12] 0.021 | givinostat -0.014 | barasertib -0.012

PHGDH (UniProt O43175)
inactive: IRAK-1-4 Inhibitor I 0.051 | ibrutinib 0.016 | [1] 0.015 | ralimetinib -0.04 | [2] -0.019 | [3] 0.044 | [4] 0.004 | pinometostat -0.045 | [5] -0.014 | [6] 0.005 | [7] 0.023 | [8] 0 | [9] 0.022 | [10] 0.021 | Nexturastat A -0.101 | vemurafenib 0.015 | [11] 0.017 | [12] -0.014 | givinostat -0.072 | barasertib 0.001

2 entries picked at random from those above:
PFKL isoform 2 (UniProt P17858)
inactive: IRAK-1-4 Inhibitor I 0.015 | ibrutinib 0.018 | [1] 0.003 | ralimetinib -0.053 | [2] 0.02 | [3] 0.108 | [4] -0.058 | pinometostat -0.022 | [5] 0.015 | [6] 0.013 | [7] -0.049 | [8] -0.003 | [9] 0.027 | [10] -0.002 | Nexturastat A -0.049 | vemurafenib -0.01 | [11] -0.016 | [12] -0.022 | givinostat 0 | barasertib -0.009

PLCH1 (UniProt Q4KWH8)
inactive: IRAK-1-4 Inhibitor I -0.081 | ibrutinib -0.186 | [1] -0.09 | ralimetinib -0.084 | [2] 0.016 | [3] -0.119 | [4] 0.017 | pinometostat -0.02 | [5] 0.01 | [6] 0.067 | [7] 0.013 | [8] 0.018 | [9] 0.007 | [10] -0.003 | Nexturastat A -0.084 | vemurafenib 0.001 | [11] -0.073 | [12] -0.003 | givinostat 0.043 | barasertib 0.008

(list continues)

PINX1 (UniProt Q96BK5)
inactive: IRAK-1-4 Inhibitor I -0.291 | ibrutinib 0.167 | [1] 0.233 | ralimetinib 0.208 | [2] 0.052 | [3] 0.09 | [4] 0.149 | pinometostat 0.231 | [5] -0.125 | [6] -0.362 | [7] 0.028 | [8] 0.05 | [9] -0.119 | [10] -0.267 | Nexturastat A 0.481 | vemurafenib -0.233 | [11] -0.044 | [12] 0.212 | givinostat 0.019 | barasertib -0.152

PIGU (UniProt Q9H490)
inactive: IRAK-1-4 Inhibitor I 0.035 | ibrutinib 0.009 | [1] -0.049 | ralimetinib 0.023 | [2] -0.146 | [3] -0.112 | [4] -0.025 | pinometostat 0.067 | [5] -0.03 | [6] -0.019 | [7] 0.077 | [8] -0.001 | [9] -0.049 | [10] -0.048 | Nexturastat A -0.02 | vemurafenib 0.117 | [11] 0.064 | [12] 0.018 | givinostat 0.015 | barasertib 0.044

PITPNA (UniProt Q00169)
inactive: IRAK-1-4 Inhibitor I 0.029 | ibrutinib 0.001 | [1] -0.004 | ralimetinib -0.048 | [2] -0.003 | [3] 0.079 | [4] -0.001 | pinometostat -0.01 | [5] 0.004 | [6] 0.023 | [7] -0.031 | [8] -0.003 | [9] -0.007 | [10] -0.008 | Nexturastat A -0.043 | vemurafenib -0.02 | [11] 0.015 | [12] -0.024 | givinostat -0.032 | barasertib -0.007

PIK3R2 (UniProt O00459)
inactive: IRAK-1-4 Inhibitor I 0.008 | ibrutinib -0.019 | [1] -0.016 | ralimetinib -0.067 | [2] 0.079 | [3] -0.133 | [4] 0.108 | pinometostat 0.038 | [5] 0.197 | [6] 0.084 | [7] -0.06 | [8] -0.008 | [9] 0.016 | [10] -0.022 | Nexturastat A 0.02 | vemurafenib 0.052 | [11] -0.065 | [12] -0.069 | givinostat 0.112 | barasertib 0.091

PGRMC2 isoform 2 (UniProt O15173)
inactive: IRAK-1-4 Inhibitor I 0.067 | ibrutinib 0.055 | [1] 0.007 | ralimetinib -0.003 | [2] 0.014 | [3] 0.039 | [4] -0.017 | pinometostat -0.037 | [5] 0.003 | [6] 0.006 | [7] -0.005 | [8] -0.009 | [9] 0.023 | [10] -0.002 | Nexturastat A 0.001 | vemurafenib 0.02 | [11] -0.002 | [12] 0.003 | givinostat -0.023 | barasertib 0.011
